Source: PubChem BioAssay AID1347108 (NCATS, 2019).

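Living Rh41 pediatric muscle-tumor cells are counted by ATP-driven light output after two days of compound treatment.
Compounds were run as 8- or 11-point dilution series reaching a top final concentration of 46 µM.
The number is the fitted potency (AC50, nM) for loss of viability, and lower values mean a more potent cytotoxic compound.
Calls come from curve class and activity score: active scores 40-100 for well-fitted killing curves, inconclusive scores 1-39 for weak, partial, poorly fitted or top-dose-only curves.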

Values are in nM.
All entries here are filed as inconclusive.
These entries are mostly ones the record files as inconclusive; other results of the assay are not listed here.
A potency from a partial, single-point or poor curve is only a rough figure.
Some entries filed as inconclusive have a full curve.
Activity scores are not listed here.

SMILES: C[C@H](NC(=O)Cc1cc(F)cc(F)c1)C(=O)N[C@H](C(=O)OC(C)(C)C)c1ccccc1
fitted potency (nM): 10490
curve as filed: cytotoxic, partial curve

SMILES: COCCOc1nc(-c2ccc(Cl)c(Cl)c2)n(-c2ccc(NC(=O)CCl)cc2)n1
fitted potency (nM): 13206
curve as filed: cytotoxic, partial curve

SMILES: Fc1ccc(C(OCCN2CCN(CCCc3ccccc3)CC2)c2ccc(F)cc2)cc1
fitted potency (nM): 21136
curve as filed: cytotoxic, single point

SMILES: Clc1cc(Cl)cc(CNc2ncncc2-c2ccc3c(c2)OCO3)c1
fitted potency (nM): 23484
curve as filed: cytotoxic, single point

SMILES: CC[C@]1(O)C[C@@H]2CN(CCc3c([nH]c4ccccc34)[C@@](C(=O)OC)(c3cc4c(cc3OC)N(C=O)[C@@H]3C45CCN4CC=C[C@](CC)([C@H]45)[C@@H](OC(C)=O)[C@]3(O)C(=O)OC)C2)C1 (stereo partly drawn)
fitted potency (nM): 16626
curve as filed: cytotoxic, partial curve

SMILES: CON(C)C(=O)N1N=C(c2cc(F)ccc2F)S[C@]1(CCCN)c1ccccc1
fitted potency (nM): 4.2
curve as filed: cytotoxic, full curve

SMILES: Cn1cc(-c2ccc3nnc(C(F)(F)c4ccc5ncccc5c4)n3n2)cn1
fitted potency (nM): 10490
curve as filed: cytotoxic, partial curve

SMILES: COc1cc2nccc(Oc3ccc(NC(=O)Nc4ccc(F)cc4F)c(F)c3)c2cc1OC
fitted potency (nM): 11770
curve as filed: cytotoxic, partial curve

SMILES: COc1ccc2c(Oc3ccc(NC(=O)c4c(C)n(CC(C)(C)O)n(-c5ccccc5)c4=O)cc3F)ccnc2c1
fitted potency (nM): 20930
curve as filed: cytotoxic, partial curve

SMILES: Cn1cc(-c2ccc3nnc(Sc4ccc5ncccc5c4)n3n2)cn1
fitted potency (nM): 18654
curve as filed: cytotoxic, partial curve

SMILES: Cc1ccc(N(CC2=NCCN2)c2cccc(O)c2)cc1
fitted potency (nM): 8333
curve as filed: cytotoxic, partial curve

SMILES: CC[C@H](CO)Nc1nc(NCc2ccccc2)c2ncn(C(C)C)c2n1
fitted potency (nM): 20930
curve as filed: cytotoxic, partial curve

SMILES: Cc1cc(C2CCCCC2)n(O)c(=O)c1
fitted potency (nM): 2372
curve as filed: cytotoxic, full curve

SMILES: CNCCCC12CCC(c3ccccc31)c1ccccc12
fitted potency (nM): 21136
curve as filed: cytotoxic, single point

SMILES: CCOC(=O)c1ccc(OC(=O)CCCCCN=C(N)N)cc1
fitted potency (nM): 23484
curve as filed: cytotoxic, single point

SMILES: Cc1c(O)cccc1C(=O)N[C@@H](CSc1ccccc1)[C@H](O)CN1C[C@H]2CCCC[C@@H]2C[C@@H]1C(=O)NC(C)(C)C
fitted potency (nM): 20930
curve as filed: cytotoxic, partial curve

SMILES: CN(C)Cc1cccc(N=C(c2ccccc2)c2c(O)[nH]c3cc(C(=O)N(C)C)ccc23)c1
fitted potency (nM): 18654
curve as filed: cytotoxic, partial curve

SMILES: O=C(O)c1cc(O)c2c(c1)C(=O)c1cccc(O)c1C2=O
fitted potency (nM): 27041
curve as filed: cytotoxic, partial curve

SMILES: Clc1ccc(-c2nc3sccn3c2C=NOCc2ccc(Cl)c(Cl)c2)cc1
fitted potency (nM): 14817
curve as filed: cytotoxic, partial curve, poor fit

SMILES: Cc1cc(-c2ccc(CC(=O)Nc3ccc(-c4cccnc4)cc3)cc2)ccn1
fitted potency (nM): 13206
curve as filed: cytotoxic, partial curve

SMILES: CCc1nc(N)nc(N)c1-c1ccc(Cl)cc1
fitted potency (nM): 14963
curve as filed: cytotoxic, single point

SMILES: O=c1[nH]c2ccccc2n1CCCN1CCN(C(c2ccccc2)c2ccccc2)CC1
fitted potency (nM): 11885
curve as filed: cytotoxic, partial curve

SMILES: COc1cccc2c1CCCC2CCCN1CCN(C2CCCCC2)CC1 (stereo not drawn)
fitted potency (nM): 10490
curve as filed: cytotoxic, partial curve

SMILES: O=c1c(O)c(-c2ccc(O)cc2)oc2cc(O)cc(O)c12
fitted potency (nM): 11770
curve as filed: cytotoxic, partial curve

SMILES: Clc1ccc(C(c2ccccc2Cl)C(Cl)Cl)cc1 (stereo not drawn)
fitted potency (nM): 2957
curve as filed: cytotoxic, partial curve

SMILES: O=C(O)c1cccc(-c2noc(-c3ccccc3F)n2)c1
fitted potency (nM): 33498
curve as filed: cytotoxic, partial curve, poor fit

SMILES: O=c1ccn([C@@H]2O[C@H](CO)[C@H](O)[C@@H]2F)c(=O)[nH]1
fitted potency (nM): 11770
curve as filed: cytotoxic, partial curve, poor fit

SMILES: Cc1cccc(C)c1OCC(=O)N[C@@H](Cc1ccccc1)[C@@H](O)C[C@H](Cc1ccccc1)NC(=O)[C@H](C(C)C)N1CCCNC1=O
fitted potency (nM): 13335
curve as filed: cytotoxic, single point

SMILES: CCCCN(CCCC)CCC(O)c1cc2c(Cl)cc(Cl)cc2c2cc(C(F)(F)F)ccc12 (stereo not drawn)
fitted potency (nM): 16788
curve as filed: cytotoxic, single point

Some entries from above, unchanged:

SMILES	fitted potency (nM)	curve as filed
Cc1cc(C2CCCCC2)n(O)c(=O)c1	2372	cytotoxic, full curve
O=c1[nH]c2ccccc2n1CCCN1CCN(C(c2ccccc2)c2ccccc2)CC1	11885	cytotoxic, partial curve